# Reference: PubChem BioAssay (NCATS)
# The inconclusive results got no clear call from the source; some entries with a clear call stand among them for comparison. For some assays here: Where the call is inconclusive, the potency comes from a doubtful curve fit. Activity calls are given as the source filed them. Calls follow the shape of the dose curve; as a rule, active = well fitted curve in the direction sought with a large enough effect; inconclusive = small, poorly fitted or top-dose-only effect, or another doubt; inactive = no such curve, though single readings can be large; an effect the other way counts as inactive or inconclusive.
# Assays:
# [1] = Quantitative High-Throughput drug screen in 47 multiple myeloma cell lines against the NCATS MIPE library collection: OCIMY1_PLB cell viability assay (AID 1918979); also: nearly all actives have a fitted effect of over 35% in size
# How it was run: (§1)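 ATP-based CellTiter-Glo luminescence after 48 h drug exposure (37 °C, 5% CO2) of 500 myeloma cells per well. DMSO-only wells set 100% viability, media-only wells 0%; MIPE 4.0 library added by pin tool.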
# [2] = Quantitative High-Throughput drug screen in 47 multiple myeloma cell lines against the NCATS MIPE library collection: LP1_DSMZ cell viability assay (AID 1918982); also: nearly all actives have a fitted effect of over 35% in size
# How it was run: as §1
# [3] = Quantitative High-Throughput drug screen in 47 multiple myeloma cell lines against the NCATS MIPE library collection: KMS28PE_JCRB cell viability assay (AID 1918983); also: nearly all actives have a fitted effect of over 35% in size
# How it was run: as §1
# [4] = Quantitative High-Throughput drug screen in 47 multiple myeloma cell lines against the NCATS MIPE library collection: KMS34_JCRB cell viability assay (AID 1918985); details: KMS34 myeloma viability, CellTiter-Glo ATP luminescence, 48 h; viability, percent of control: at 45.8 µM (top of the series); also: nearly all actives have a fitted effect of over 40% in size
# How it was run: as §1
# [5] = Quantitative High-Throughput drug screen in 47 multiple myeloma cell lines against the NCATS MIPE library collection: OCIMY7_PLB cell viability assay (AID 1918987); details: OCI-MY7 myeloma viability, CellTiter-Glo ATP, 48 h; viability (% of DMSO): at 45.8 µM (top of the series) unless noted; also: nearly all actives have a fitted effect of over 65% in size
# How it was run: as §1
# [6] = Quantitative High-Throughput drug screen in 47 multiple myeloma cell lines against the NCATS MIPE library collection: OCIMY5_PLB cell viability assay (AID 1918988); details: OCI-MY5 myeloma viability, ATP luminescence, 48 h; viability, % of control: at 45.8 µM (top of the series); also: nearly all actives have a fitted effect of over 65% in size
# How it was run: as §1
# [7] = Quantitative High-Throughput drug screen in 47 multiple myeloma cell lines against the NCATS MIPE library collection: OPM1_PLB cell viability assay (AID 1918989); details: CellTiter-Glo, 48 h; viability (% of control): at 45.8 µM (top of the series); also: nearly all actives have a fitted effect of over 40% in size
# How it was run: as §1
# [8] = Quantitative High-Throughput drug screen in 47 multiple myeloma cell lines against the NCATS MIPE library collection: SKMM1_PLB cell viability assay (AID 1919863); details: SKMM1 myeloma viability, CellTiter-Glo ATP, 48 h; viability: active compounds read low; also: nearly all actives have a fitted effect of over 35% in size
# How it was run: as §1
# [9] = Quantitative High-Throughput drug screen in 47 multiple myeloma cell lines against the NCATS MIPE library collection: U266_ATCC cell viability assay (AID 1919864); also: nearly all actives have a fitted effect of over 35% in size
# How it was run: as §1
# [10] = Quantitative High-Throughput drug screen in 47 multiple myeloma cell lines against the NCATS MIPE library collection: XG6_PLB cell viability assay (AID 1919865); details: XG6 myeloma viability, CellTiter-Glo ATP luminescence, 48 h; viability (% of control): at 45.8 µM (top of the series); also: nearly all actives have a fitted effect of over 40% in size
# How it was run: as §1
# [11] = Quantitative High-Throughput drug screen in 47 multiple myeloma cell lines against the NCATS MIPE library collection: VP6_DJ cell viability assay (AID 1919867); details: ATP luminescence, 48 h; viability (% of DMSO): at 45.8 µM (top of the series); also: nearly all actives have a fitted effect of over 40% in size
# How it was run: as §1
# [12] = Quantitative High-Throughput drug screen in 47 multiple myeloma cell lines against the NCATS MIPE library collection: UTMC2_PLB cell viability assay (AID 1919868); details: CellTiter-Glo ATP luminescence, 48 h; viability (% of DMSO control): at 45.8 µM (top of the series); also: nearly all actives have a fitted effect of over 55% in size
# How it was run: as §1
# [13] = Quantitative High-Throughput drug screen in 47 multiple myeloma cell lines against the NCATS MIPE library collection: PE2_PLB cell viability assay (AID 1919869); details: PE2_PLB myeloma cells viability, ATP luminescence, 48 h; viability (% of control): at 45.8 µM (top of the series); also: nearly all actives have a fitted effect of over 35% in size
# How it was run: as §1
# [14] = Quantitative High-Throughput drug screen in 47 multiple myeloma cell lines against the NCATS MIPE library collection: L363_DSMZ cell viability assay (AID 1918984); details: L363 myeloma viability, CellTiter-Glo ATP luminescence, 48 h; viability (% of control): at 45.8 µM (top of the series); also: nearly all actives have a fitted effect of over 40% in size
# How it was run: as §1
# [15] = Quantitative High-Throughput drug screen in 47 multiple myeloma cell lines against the NCATS MIPE library collection: NCIH929_DSMZ cell viability assay (AID 1918978); details: NCI-H929 myeloma viability, CellTiter-Glo ATP, 48 h; viability, % of control: at 45.8 µM (top of the series); also: nearly all actives have a fitted effect of over 35% in size
# How it was run: as §1
# [16] = Quantitative High-Throughput drug screen in 47 multiple myeloma cell lines against the NCATS MIPE library collection: PCM6_Riken cell viability assay (AID 1919870); details: CellTiter-Glo ATP, 48 h; viability (% of control): at 45.8 µM (top of the series); also: nearly all actives have a fitted effect of over 30% in size
# How it was run: as §1
# [17] = Quantitative High-Throughput drug screen in 47 multiple myeloma cell lines against the NCATS MIPE library collection: XG1_PLB cell viability assay (AID 1919866); also: nearly all actives have a fitted effect of over 35% in size
# How it was run: as §1
# [18] = Quantitative High-Throughput drug screen in 47 multiple myeloma cell lines against the NCATS MIPE library collection: MM1S_ATCC cell viability assay (AID 1918980); also: nearly all actives have a fitted effect of over 45% in size
# How it was run: as §1
# [19] = Quantitative High-Throughput drug screen in 47 multiple myeloma cell lines against the NCATS MIPE library collection: MM1R_ATCC cell viability assay (AID 1918981); also: nearly all actives have a fitted effect of over 35% in size
# How it was run: as §1
# Potency is read from the fitted curve at half-maximal effect.
smiles,measurement,setting,value
CC(=O)O[C@H]1C[C@@H]2CC[C@H]3[C@H]4C[C@H]([N+]5(C)CCCCC5)[C@@H](OC(C)=O)[C@@]4(C)CC[C@@H]3[C@@]2(C)C[C@H]1[N+]1(C)CCCCC1,Potency,[1],inactive
same,Potency,[2],inactive
same,Potency,[3],"inconclusive: 0.935 µM [cytotoxic, partial curve, poor fit]"
same,Potency,[4],inactive
same,Potency,[5],"inconclusive: 0.0332 µM [cytotoxic, full curve, poor fit]"
same,Potency,[6],"inconclusive: 1.32 µM [cytotoxic, full curve, poor fit]"
same,Potency,[7],"inconclusive: 0.0047 µM [cytotoxic, full curve, poor fit]"
same,viability,[8],inactive: 128%
same,Potency,[9],active: 23.5 µM
same,Potency,[10],inactive
same,Potency,[11],"inconclusive: 0.0187 µM [rising, full curve, poor fit]"
same,Potency,[12],"inconclusive: 0.0013 µM [rising, full curve, poor fit]"
same,Potency,[13],inconclusive: 0.001 µM [cytotoxic]
C[C@@H](Oc1cc(-c2cnn(C3CCNCC3)c2)cnc1N)c1c(Cl)ccc(F)c1Cl,Potency,[14],active: 4.69 µM
N#CCNC(=O)c1ccc(-c2ccnc(Nc3ccc(N4CCOCC4)cc3)n2)cc1,Potency,[15],active: 9.35 µM
same,Potency,[3],active: 18.7 µM
same,Potency,[14],"inconclusive: 2.96 µM [cytotoxic, partial curve, poor fit]"
same,Potency,[7],active: 11.8 µM
same,Potency,[8],"inconclusive: 33.2 µM [cytotoxic, partial curve, poor fit]"
same,Potency,[9],active: 18.7 µM
same,Potency,[12],"inconclusive: 11.8 µM [cytotoxic, partial curve, poor fit]"
same,Potency,[16],active: 3.32 µM
CS[C@H]1SC[C@@H]2C(=O)N(C)[C@H](C(C)C)C(=O)OC[C@H](NC(=O)c3cnc4ccccc4n3)C(=O)N[C@H](C)C(=O)N(C)[C@@H]1C(=O)N(C)[C@H](C(C)C)C(=O)OC[C@H](NC(=O)c1cnc3ccccc3n1)C(=O)N[C@H](C)C(=O)N2C,Potency,[1],active: 0.0209 µM
same,Potency,[3],active: 0.003 µM
same,viability (% of control),[14],inconclusive: 15.5% [cytotoxic]
same,viability (% of control),[7],inconclusive: 4.17% [cytotoxic]
same,Potency,[17],active: 0.0074 µM
same,Potency,[16],active: 0.001 µM
OC1CCC(Nc2ncc3nc(Nc4c(F)cc(F)cc4F)n([C@@H]4CCOC4)c3n2)CC1 (stereo partly specified),Potency,[15],"inconclusive: 20.9 µM [cytotoxic, partial curve]"
same,Potency,[1],"inconclusive: 23.5 µM [cytotoxic, single point]"
same,Potency,[2],"inconclusive: 37.2 µM [cytotoxic, single point]"
same,Potency,[3],inactive
same,Potency,[14],active: 5.26 µM
same,Potency,[5],"inconclusive: 37.2 µM [cytotoxic, single point]"
same,Potency,[6],"inconclusive: 20.9 µM [cytotoxic, partial curve, poor fit]"
same,Potency,[8],active: 18.7 µM
same,Potency,[9],"inconclusive: 29.6 µM [cytotoxic, single point]"
same,Potency,[17],active: 13.2 µM
same,Potency,[12],inactive
same,Potency,[13],"inconclusive: 23.5 µM [cytotoxic, partial curve]"
same,Potency,[16],active: 18.7 µM
CN1CC[C@@H](c2c(O)cc(O)c3c(=O)cc(-c4ccccc4Cl)oc23)[C@@H](O)C1,Potency,[18],active: 0.0935 µM
same,Potency,[2],active: 0.0662 µM
same,Potency,[14],"inconclusive: 0.0662 µM [cytotoxic, full curve]"
same,Potency,[4],active: 0.0743 µM
same,Potency,[6],active: 0.0662 µM
same,Potency,[10],"inconclusive: 0.0662 µM [cytotoxic, full curve]"
same,Potency,[17],"inconclusive: 0.0935 µM [cytotoxic, full curve]"
same,Potency,[11],active: 0.0526 µM
COc1ccc(S(=O)(=O)Nc2cc(-c3c(O)ccc4ccccc34)c(O)c3ccccc23)cc1,Potency,[18],active: 2.35 µM
same,Potency,[2],active: 16.6 µM
same,Potency,[3],"inconclusive: 33.2 µM [cytotoxic, single point]"
same,Potency,[5],active: 2.64 µM
same,Potency,[9],active: 2.35 µM
same,Potency,[16],active: 5.26 µM
Cc1ccc(S(=O)(=O)Nc2nc3ccccc3nc2Nc2ccc3nsnc3c2)cc1,Potency,[15],active: 7.24 µM
same,Potency,[18],active: 0.575 µM
same,Potency,[19],"inconclusive: 8.12 µM [cytotoxic, partial curve, poor fit]"
same,Potency,[2],"inconclusive: 0.323 µM [cytotoxic, partial curve, poor fit]"
same,Potency,[3],"inconclusive: 18.2 µM [cytotoxic, single point]"
same,Potency,[4],"inconclusive: 6.45 µM [cytotoxic, partial curve]"
same,Potency,[6],"inconclusive: 8.12 µM [cytotoxic, partial curve, poor fit]"
same,Potency,[8],active: 7.24 µM
same,Potency,[9],"inconclusive: 1.15 µM [cytotoxic, full curve, poor fit]"
same,Potency,[11],active: 0.645 µM
same,Potency,[12],active: 1.02 µM
same,Potency,[13],"inconclusive: 0.724 µM [cytotoxic, full curve]"
same,Potency,[16],"inconclusive: 0.512 µM [cytotoxic, full curve, poor fit]"
Cn1cc(C=CC(=O)c2cccc(F)c2)cc1C=CC(=O)NO,Potency,[1],"inconclusive: 37.2 µM [cytotoxic, single point]"
same,Potency,[2],"inconclusive: 33.2 µM [cytotoxic, single point]"
same,Potency,[3],"inconclusive: 23.5 µM [cytotoxic, single point]"
same,Potency,[5],active: 11.8 µM
same,Potency,[6],active: 14.8 µM
same,Potency,[8],"inconclusive: 20.9 µM [cytotoxic, partial curve, poor fit]"
same,Potency,[11],"inconclusive: 2.96 µM [cytotoxic, full curve, poor fit]"
same,Potency,[12],"inconclusive: 11.8 µM [cytotoxic, partial curve, poor fit]"
CO[C@@]12[C@H](COC(N)=O)C3=C(C(=O)C(C)=C(N)C3=O)N1C[C@@H]1N[C@@H]12,Potency,[1],"inconclusive: 33.2 µM [cytotoxic, single point]"
same,Potency,[2],"inconclusive: 33.2 µM [cytotoxic, single point]"
same,Potency,[4],active: 26.4 µM
same,Potency,[7],active: 26.4 µM
same,Potency,[10],"inconclusive: 33.2 µM [cytotoxic, single point]"
same,Potency,[11],active: 20.9 µM
NC(=O)NO,Potency,[5],active: 0.132 µM
same,Potency,[9],active: 2.64 µM
same,Potency,[11],active: 1.05 µM
same,Potency,[12],active: 1.66 µM
COc1cccc2c1C(=O)c1c(O)c3c(c(O)c1C2=O)C[C@@](O)(C(=O)CO)C[C@H]3O[C@H]1C[C@H](N)[C@H](O)[C@H](C)O1,Potency,[18],active: 0.0209 µM
same,Potency,[7],active: 0.526 µM
COc1ccc2c3n(c(=NC(=O)c4cccnc4)nc2c1OC)CCN3,Potency,[15],active: 1.87 µM
same,Potency,[1],"inconclusive: 0.59 µM [cytotoxic, full curve]"
same,Potency,[2],"inconclusive: 0.372 µM [cytotoxic, full curve]"
same,Potency,[14],"inconclusive: 8.33 µM [cytotoxic, full curve, poor fit]"
same,Potency,[4],"inconclusive: 9.35 µM [cytotoxic, partial curve]"
same,Potency,[5],active: 0.0743 µM
same,Potency,[9],"inconclusive: 20.9 µM [cytotoxic, partial curve]"
same,Potency,[16],"inconclusive: 11.8 µM [cytotoxic, partial curve]"
C[C@@H]1C[C@H]2[C@@H]3CCC4=CC(=O)C=C[C@]4(C)[C@@]3(F)[C@@H](O)C[C@]2(C)[C@@]1(O)C(=O)CO,Potency,[18],active: 0.0264 µM
same,Potency,[3],inactive
same,Potency,[14],"inconclusive: 0.0935 µM [cytotoxic, full curve, poor fit]"
same,Potency,[4],inactive
same,Potency,[5],inactive
same,Potency,[6],"inconclusive: 0.0469 µM [cytotoxic, full curve, poor fit]"
same,Potency,[7],inactive
same,viability,[8],inactive: 118%
same,Potency,[9],inactive
same,Potency,[11],"inconclusive: 0.0332 µM [cytotoxic, full curve, poor fit]"
O=C(Nc1cccc(C(F)(F)F)c1)Nc1cc(S(=O)(=O)NC2CC2)ccc1-c1ccsc1,Potency,[2],"inconclusive: 10.5 µM [cytotoxic, partial curve, poor fit]"
same,Potency,[3],"inconclusive: 18.7 µM [cytotoxic, partial curve, poor fit]"
same,Potency,[14],"inconclusive: 9.35 µM [cytotoxic, full curve, poor fit]"
same,Potency,[4],"inconclusive: 16.6 µM [cytotoxic, partial curve, poor fit]"
same,Potency,[6],"inconclusive: 26.4 µM [cytotoxic, single point]"
same,Potency,[8],"inconclusive: 2.09 µM [cytotoxic, full curve, poor fit]"
same,Potency,[9],"inconclusive: 0.296 µM [cytotoxic, full curve, poor fit]"
same,Potency,[17],"inconclusive: 23.5 µM [cytotoxic, partial curve]"
same,Potency,[11],"inconclusive: 33.2 µM [cytotoxic, partial curve, poor fit]"
same,Potency,[16],"inconclusive: 33.2 µM [cytotoxic, single point]"

# Random excerpt: four records from the list.
smiles,measurement,setting,value
Cn1cc(C=CC(=O)c2cccc(F)c2)cc1C=CC(=O)NO,Potency,[6],active: 14.8 µM
N#CCNC(=O)c1ccc(-c2ccnc(Nc3ccc(N4CCOCC4)cc3)n2)cc1,Potency,[3],active: 18.7 µM
OC1CCC(Nc2ncc3nc(Nc4c(F)cc(F)cc4F)n([C@@H]4CCOC4)c3n2)CC1 (stereo partly specified),Potency,[3],inactive
N#CCNC(=O)c1ccc(-c2ccnc(Nc3ccc(N4CCOCC4)cc3)n2)cc1,Potency,[7],active: 11.8 µM
